In paper PMC5489529:
No constants are given. Whether binding was seen depends on the method and setting. Some results given as binding are weak or reduced against the parent protein; the word gives no strength.

Amino acid sequences for entries named in this document (tags omitted). Residues count along the entry.
UniProt P98158, residues 26-4660: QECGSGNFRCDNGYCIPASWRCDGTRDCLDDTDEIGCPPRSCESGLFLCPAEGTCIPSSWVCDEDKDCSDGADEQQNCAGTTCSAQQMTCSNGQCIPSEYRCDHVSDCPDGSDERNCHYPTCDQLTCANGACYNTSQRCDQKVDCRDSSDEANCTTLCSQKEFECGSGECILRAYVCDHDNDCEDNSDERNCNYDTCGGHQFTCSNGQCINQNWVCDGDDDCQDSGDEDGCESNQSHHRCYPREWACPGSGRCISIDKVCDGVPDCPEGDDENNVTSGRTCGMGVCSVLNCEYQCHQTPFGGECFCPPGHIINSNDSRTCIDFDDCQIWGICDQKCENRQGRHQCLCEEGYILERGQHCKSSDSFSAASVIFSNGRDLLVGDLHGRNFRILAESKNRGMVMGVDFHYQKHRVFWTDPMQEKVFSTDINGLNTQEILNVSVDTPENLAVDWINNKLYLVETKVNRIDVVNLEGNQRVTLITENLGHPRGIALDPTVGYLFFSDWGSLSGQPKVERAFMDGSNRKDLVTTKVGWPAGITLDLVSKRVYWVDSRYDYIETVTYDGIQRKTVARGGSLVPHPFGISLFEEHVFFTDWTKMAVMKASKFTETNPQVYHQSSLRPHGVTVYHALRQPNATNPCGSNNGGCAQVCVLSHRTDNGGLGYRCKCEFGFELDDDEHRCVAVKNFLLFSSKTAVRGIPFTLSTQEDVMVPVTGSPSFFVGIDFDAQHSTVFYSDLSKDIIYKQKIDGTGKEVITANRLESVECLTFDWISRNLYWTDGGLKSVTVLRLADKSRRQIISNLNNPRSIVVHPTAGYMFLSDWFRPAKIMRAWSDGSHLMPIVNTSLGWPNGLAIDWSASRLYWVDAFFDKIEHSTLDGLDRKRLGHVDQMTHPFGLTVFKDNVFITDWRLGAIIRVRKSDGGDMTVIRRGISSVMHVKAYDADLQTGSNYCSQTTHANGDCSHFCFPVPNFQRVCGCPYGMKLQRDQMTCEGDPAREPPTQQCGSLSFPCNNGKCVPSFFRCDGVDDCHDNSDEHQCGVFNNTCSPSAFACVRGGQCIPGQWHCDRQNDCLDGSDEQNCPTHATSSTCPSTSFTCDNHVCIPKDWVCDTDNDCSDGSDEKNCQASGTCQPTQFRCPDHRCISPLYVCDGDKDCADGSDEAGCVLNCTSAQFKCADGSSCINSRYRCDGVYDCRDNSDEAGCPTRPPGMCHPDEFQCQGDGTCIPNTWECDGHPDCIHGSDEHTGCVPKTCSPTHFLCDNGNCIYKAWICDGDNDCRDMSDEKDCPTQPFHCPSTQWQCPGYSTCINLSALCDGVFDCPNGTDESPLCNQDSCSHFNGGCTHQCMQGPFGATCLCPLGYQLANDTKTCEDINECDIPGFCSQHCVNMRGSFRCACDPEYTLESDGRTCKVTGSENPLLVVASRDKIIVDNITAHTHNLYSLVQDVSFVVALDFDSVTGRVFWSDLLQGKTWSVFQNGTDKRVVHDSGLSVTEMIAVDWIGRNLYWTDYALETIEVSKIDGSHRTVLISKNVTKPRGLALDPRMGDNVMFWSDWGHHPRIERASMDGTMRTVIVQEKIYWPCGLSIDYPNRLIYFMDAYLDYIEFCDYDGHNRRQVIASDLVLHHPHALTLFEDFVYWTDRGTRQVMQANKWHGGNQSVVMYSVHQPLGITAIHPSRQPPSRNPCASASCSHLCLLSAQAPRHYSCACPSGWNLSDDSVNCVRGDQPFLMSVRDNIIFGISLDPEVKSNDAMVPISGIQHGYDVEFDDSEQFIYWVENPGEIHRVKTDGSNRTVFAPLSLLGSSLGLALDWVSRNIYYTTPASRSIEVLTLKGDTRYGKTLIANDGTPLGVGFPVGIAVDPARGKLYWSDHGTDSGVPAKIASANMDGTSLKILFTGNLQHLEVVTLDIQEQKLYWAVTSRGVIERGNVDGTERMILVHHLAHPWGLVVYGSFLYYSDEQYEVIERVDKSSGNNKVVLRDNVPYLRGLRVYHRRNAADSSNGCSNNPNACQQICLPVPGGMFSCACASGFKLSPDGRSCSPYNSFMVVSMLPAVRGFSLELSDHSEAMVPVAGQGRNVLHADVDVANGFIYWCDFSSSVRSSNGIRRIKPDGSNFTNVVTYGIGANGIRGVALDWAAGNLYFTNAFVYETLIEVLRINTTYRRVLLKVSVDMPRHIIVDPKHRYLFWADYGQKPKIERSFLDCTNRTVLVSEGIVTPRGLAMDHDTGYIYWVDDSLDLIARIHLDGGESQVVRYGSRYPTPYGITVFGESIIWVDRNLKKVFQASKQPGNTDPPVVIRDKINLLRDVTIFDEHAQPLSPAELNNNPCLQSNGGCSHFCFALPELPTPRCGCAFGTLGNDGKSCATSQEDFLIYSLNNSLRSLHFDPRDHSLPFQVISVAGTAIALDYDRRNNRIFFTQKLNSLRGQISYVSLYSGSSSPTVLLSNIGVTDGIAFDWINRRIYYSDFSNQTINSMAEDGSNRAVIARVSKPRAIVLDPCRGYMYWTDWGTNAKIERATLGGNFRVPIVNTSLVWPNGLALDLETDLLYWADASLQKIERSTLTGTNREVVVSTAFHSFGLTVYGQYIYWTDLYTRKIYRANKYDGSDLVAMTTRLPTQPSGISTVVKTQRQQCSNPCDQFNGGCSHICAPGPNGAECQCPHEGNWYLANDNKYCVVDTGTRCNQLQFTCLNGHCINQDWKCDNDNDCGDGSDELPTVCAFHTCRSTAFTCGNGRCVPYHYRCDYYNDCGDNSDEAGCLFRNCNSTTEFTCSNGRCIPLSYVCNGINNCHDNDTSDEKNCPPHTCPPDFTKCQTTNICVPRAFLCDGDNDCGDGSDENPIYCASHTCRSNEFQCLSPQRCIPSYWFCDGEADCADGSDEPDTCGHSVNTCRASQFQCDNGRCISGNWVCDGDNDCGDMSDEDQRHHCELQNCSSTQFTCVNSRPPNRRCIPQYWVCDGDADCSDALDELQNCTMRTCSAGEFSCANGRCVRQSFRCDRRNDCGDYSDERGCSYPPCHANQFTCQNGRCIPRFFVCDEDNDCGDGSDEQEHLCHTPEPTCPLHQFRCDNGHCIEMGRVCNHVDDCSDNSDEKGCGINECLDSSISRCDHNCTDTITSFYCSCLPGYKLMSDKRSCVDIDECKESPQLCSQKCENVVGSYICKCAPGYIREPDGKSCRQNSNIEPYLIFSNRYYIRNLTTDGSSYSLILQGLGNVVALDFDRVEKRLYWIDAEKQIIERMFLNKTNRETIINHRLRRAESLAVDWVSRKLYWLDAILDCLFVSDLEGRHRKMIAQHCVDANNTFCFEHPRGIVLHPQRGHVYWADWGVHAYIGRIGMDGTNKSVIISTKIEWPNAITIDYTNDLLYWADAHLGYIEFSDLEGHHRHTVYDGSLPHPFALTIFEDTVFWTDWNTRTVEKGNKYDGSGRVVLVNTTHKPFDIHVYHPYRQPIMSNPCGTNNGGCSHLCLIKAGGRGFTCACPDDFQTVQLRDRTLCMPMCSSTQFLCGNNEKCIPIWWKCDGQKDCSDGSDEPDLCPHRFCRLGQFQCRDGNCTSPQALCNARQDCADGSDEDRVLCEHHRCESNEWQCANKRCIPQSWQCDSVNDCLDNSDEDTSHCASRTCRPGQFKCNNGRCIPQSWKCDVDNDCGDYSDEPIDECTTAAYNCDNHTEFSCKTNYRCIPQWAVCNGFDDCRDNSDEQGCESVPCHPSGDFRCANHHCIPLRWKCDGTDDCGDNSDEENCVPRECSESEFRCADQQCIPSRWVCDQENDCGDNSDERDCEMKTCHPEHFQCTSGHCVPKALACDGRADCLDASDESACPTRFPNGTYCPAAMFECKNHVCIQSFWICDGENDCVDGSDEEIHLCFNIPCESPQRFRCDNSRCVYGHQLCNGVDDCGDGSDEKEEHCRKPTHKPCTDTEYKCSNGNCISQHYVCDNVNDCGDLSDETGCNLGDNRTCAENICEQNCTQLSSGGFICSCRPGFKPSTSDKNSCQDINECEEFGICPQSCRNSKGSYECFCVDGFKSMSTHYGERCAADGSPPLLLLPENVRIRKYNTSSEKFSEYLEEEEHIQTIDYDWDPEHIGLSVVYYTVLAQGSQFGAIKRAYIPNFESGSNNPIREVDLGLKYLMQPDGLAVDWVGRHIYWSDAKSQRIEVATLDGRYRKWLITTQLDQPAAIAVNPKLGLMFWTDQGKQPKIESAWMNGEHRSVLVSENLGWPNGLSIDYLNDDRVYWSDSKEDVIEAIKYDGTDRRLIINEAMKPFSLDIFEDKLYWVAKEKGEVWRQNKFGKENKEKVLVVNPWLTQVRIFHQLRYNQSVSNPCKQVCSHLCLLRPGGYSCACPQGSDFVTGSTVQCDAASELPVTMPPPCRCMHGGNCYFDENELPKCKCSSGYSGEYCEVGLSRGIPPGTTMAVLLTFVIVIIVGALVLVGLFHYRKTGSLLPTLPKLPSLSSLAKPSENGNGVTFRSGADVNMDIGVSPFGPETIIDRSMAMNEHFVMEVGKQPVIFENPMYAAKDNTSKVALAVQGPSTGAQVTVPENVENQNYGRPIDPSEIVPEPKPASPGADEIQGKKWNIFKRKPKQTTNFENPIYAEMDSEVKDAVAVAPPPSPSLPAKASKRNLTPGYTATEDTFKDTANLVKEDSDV
UniProt P30533, residues 35-357: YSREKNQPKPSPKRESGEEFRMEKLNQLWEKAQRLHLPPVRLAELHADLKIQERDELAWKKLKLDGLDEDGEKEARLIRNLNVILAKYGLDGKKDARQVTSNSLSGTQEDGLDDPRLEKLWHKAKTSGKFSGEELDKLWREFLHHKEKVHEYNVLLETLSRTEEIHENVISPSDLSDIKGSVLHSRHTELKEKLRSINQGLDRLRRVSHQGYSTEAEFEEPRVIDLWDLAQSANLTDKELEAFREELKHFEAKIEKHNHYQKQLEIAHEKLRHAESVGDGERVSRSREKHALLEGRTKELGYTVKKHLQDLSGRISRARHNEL

Target: megalin/LRP-2 on BN16 rat yolk sac carcinoma cells (rat (endogenous in BN16)) (UniProt P98158)
Test: radioligand binding; confluent BN16 cells at 4 °C, 10 nM 125I-proMMP-2:TIMP-2 for up to 2 h, without or with 1 uM RAP, anti-megalin/LRP-2 IgG, anti-LRP-1 IgG or non-immune IgG (100 ug/ml); surface-bound = pronase-sensitive radioactivity; only the binder purified

- binding: binds
Substance: Receptor-associated protein (RAP) (from UniProt P30533 35-357)
